We go through one substance from paper PMC11647120.

Sequences of proteins named here, by UniProt entry; tags and fusion partners are left off.
UniProt Q92905: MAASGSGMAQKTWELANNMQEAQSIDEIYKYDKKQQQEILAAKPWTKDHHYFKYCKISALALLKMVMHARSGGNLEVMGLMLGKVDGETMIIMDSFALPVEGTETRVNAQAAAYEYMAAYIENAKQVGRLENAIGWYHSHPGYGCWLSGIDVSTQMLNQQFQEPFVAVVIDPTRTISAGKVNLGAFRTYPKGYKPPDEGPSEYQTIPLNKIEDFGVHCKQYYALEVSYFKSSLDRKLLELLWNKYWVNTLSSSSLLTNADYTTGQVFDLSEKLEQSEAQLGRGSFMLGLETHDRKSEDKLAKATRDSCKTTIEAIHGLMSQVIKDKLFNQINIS
UniProt Q13620: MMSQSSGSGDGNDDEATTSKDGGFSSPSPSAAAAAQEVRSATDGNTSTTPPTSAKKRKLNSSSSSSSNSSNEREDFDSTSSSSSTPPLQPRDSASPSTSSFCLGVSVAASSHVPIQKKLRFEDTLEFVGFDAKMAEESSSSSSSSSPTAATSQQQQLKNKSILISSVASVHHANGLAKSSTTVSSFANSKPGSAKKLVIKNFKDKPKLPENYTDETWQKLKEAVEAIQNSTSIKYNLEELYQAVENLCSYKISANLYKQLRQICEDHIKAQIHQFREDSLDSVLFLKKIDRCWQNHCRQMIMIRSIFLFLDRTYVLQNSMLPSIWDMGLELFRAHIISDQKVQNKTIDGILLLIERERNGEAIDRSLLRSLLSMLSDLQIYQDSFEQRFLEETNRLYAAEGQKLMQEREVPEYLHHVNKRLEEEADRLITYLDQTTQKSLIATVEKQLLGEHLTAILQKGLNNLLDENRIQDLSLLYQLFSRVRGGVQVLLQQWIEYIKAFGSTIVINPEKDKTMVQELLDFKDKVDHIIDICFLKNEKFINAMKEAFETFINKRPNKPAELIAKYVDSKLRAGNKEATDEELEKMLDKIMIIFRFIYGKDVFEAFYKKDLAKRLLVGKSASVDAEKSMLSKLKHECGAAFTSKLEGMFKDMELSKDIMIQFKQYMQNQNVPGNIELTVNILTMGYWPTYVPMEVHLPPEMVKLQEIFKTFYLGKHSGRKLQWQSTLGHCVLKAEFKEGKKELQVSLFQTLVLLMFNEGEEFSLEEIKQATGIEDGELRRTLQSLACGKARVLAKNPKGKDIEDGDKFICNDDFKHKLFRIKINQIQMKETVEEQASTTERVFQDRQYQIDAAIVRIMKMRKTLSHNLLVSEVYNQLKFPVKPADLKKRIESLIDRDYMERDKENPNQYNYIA

This test deals with APEX2- or TurboID-conjugated CSN5 (human) (UniProt Q92905). As to the kind of experiment: proximity labelling; RPMI8226 cells overexpressing APEX2-CSN5 (500 uM biotin-tyramide 30 min, then 1 mM H2O2 1 min) or TurboID-CSN5 (500 uM biotin 10 min); streptavidin magnetic beads, LC-MS/MS (DIA); proximal = enriched 2-fold or more, p < 0.01, in biotin-tyramide- or biotin-treated samples; hits of the two systems pooled.

Results are given in words; binding and its absence hold for the method and conditions named. In cells and extracts the contact can be indirect. These calls come from enrichment with a bait or labelling near it, and not all partners need be listed.

Consider CUL4B (from UniProt Q13620 1-913), for which the binding result was “binds”.
